## Library screen at single concentrations

Chains of the proteins cited; added tags and fusions are not shown. Residues count along the entry.
UniProt I6X8D2, whole entry: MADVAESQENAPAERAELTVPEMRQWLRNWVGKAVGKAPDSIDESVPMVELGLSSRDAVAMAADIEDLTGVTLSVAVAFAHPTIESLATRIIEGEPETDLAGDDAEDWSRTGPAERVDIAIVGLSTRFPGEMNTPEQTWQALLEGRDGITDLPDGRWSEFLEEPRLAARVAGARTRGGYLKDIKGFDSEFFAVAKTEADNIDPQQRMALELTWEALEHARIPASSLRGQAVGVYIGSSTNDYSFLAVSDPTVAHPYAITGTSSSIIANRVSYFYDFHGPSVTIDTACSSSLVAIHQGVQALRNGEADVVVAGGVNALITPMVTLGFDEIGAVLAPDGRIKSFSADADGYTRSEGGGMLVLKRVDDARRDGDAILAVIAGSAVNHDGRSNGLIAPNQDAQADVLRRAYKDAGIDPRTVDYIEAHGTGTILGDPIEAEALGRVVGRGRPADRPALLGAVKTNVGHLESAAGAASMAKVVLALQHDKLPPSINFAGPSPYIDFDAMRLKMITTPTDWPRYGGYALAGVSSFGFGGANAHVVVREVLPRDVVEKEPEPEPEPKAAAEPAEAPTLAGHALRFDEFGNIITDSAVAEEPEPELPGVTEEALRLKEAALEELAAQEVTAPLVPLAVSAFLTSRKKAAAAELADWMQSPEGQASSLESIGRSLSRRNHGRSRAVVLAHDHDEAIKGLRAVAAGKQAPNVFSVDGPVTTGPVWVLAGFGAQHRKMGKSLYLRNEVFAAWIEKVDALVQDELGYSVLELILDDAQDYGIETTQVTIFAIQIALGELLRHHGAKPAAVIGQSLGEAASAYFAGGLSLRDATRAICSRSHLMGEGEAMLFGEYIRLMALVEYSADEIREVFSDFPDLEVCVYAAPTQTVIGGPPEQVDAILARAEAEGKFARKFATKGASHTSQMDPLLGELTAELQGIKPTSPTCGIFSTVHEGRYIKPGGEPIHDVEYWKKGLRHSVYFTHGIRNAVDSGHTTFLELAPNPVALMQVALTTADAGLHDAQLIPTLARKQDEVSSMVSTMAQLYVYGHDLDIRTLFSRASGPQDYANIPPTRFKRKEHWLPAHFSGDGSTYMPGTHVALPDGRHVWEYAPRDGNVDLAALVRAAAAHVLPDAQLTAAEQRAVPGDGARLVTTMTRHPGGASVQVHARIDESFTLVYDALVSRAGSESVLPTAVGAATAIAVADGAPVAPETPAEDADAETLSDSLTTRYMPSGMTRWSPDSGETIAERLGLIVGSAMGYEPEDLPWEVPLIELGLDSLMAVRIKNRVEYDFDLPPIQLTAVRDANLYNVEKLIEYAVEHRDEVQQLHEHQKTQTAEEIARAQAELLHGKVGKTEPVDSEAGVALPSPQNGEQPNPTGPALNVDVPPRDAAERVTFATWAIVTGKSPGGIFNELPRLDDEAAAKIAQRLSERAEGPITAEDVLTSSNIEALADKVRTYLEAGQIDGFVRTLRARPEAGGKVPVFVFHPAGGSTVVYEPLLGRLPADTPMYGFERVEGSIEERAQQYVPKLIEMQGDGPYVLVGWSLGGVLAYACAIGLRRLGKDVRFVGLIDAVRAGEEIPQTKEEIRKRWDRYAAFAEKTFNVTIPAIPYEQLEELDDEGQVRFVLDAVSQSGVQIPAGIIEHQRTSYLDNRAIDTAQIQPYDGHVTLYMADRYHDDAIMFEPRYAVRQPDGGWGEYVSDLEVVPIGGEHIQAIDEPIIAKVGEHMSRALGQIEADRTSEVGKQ
UniProt Q8IDJ8, 1-583: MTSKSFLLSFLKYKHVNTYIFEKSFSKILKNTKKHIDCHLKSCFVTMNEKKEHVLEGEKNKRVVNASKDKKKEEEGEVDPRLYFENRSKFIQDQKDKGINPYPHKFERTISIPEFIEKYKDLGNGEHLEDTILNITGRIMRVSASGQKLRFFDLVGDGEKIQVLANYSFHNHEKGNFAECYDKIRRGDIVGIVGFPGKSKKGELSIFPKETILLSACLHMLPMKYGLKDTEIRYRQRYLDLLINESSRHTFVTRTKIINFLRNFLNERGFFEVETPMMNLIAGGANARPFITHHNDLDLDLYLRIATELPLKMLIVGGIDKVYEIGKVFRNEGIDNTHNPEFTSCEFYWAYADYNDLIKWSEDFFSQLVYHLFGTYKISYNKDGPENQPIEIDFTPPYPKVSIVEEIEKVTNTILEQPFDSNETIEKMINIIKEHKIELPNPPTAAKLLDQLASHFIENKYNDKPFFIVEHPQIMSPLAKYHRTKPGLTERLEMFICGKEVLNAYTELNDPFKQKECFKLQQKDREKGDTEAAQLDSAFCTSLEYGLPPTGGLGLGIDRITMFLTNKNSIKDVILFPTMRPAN
UniProt A4I591, 1-473: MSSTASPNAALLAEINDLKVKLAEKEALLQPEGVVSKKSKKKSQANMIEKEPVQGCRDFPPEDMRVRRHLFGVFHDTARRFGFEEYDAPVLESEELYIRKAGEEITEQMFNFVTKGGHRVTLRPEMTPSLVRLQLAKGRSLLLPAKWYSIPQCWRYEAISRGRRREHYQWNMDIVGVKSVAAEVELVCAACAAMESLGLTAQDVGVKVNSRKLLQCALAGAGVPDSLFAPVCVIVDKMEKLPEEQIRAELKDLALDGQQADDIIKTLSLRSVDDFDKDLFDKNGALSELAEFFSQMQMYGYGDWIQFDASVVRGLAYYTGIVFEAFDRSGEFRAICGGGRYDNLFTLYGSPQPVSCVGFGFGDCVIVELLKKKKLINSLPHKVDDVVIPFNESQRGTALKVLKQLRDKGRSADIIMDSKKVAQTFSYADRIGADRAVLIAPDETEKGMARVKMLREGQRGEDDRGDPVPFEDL
UniProt P9WFT3, whole entry: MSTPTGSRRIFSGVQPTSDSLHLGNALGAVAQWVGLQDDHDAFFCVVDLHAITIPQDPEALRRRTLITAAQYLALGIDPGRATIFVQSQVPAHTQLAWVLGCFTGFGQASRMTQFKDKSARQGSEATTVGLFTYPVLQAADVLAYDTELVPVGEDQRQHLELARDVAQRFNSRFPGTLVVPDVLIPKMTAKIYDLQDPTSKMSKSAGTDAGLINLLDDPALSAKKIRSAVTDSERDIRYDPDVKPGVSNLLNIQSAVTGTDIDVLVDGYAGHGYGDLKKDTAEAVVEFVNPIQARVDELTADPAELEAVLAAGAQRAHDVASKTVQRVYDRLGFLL

A: 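Polyketide synthase Pks13, Mycobacterium tuberculosis (UniProt I6X8D2). Enzyme assay of the thioesterase domain of polyketide synthase 13; the read-out is not stated. Compounds at 30 µM. The record gives no direction; the compounds picked for IC50 retests had high values, so higher reads as stronger inhibition. About 67,000 compounds were tested under these conditions; 0.46% (about 300) showed 50% or more at least once.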
B: 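Lysine-tRNA ligase, Plasmodium falciparum 3D7 (UniProt Q8IDJ8). Enzyme assay of the cytosolic lysyl-tRNA synthetase in 384-well plates, read by luminescence. Compounds at 30 µM. Direction is inferred from only a few compounds that gave an IC50; most scored high, so higher reads as stronger inhibition. Of about 69,000 compounds tested this way, about 49 (0.071%) reached 50% or more in at least one test.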
C: 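Histidine-tRNA ligase, Leishmania infantum (UniProt A4I591). Enzyme assay of histidyl-tRNA synthetase; the read-out is not stated. Concentration: 30 µM. The record gives no direction; compounds that gave an IC50 in retests scored well above the rest, so higher reads as stronger inhibition. The assay is labelled LdHisRS but filed under L. infantum. Size under these conditions: about 69,000 compounds, about 410 of them at 50% or above in at least one test.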
D: 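Enzyme assay of tryptophanyl-tRNA synthetase; the read-out is not stated. Target: Tryptophan-tRNA ligase, Mycobacterium tuberculosis (UniProt P9WFT3). Concentration: 10 µM. Direction is not recorded; retested compounds ran higher, which suggests that high means inhibition. About 65,000 compounds were tested under these conditions; 0.098% (about 64) showed 50% or more at least once.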

Results are given as percent effect.
The record does not define 0% and 100%; most values in the screen are far below 50% and negative numbers occur (in some assays of this library far below -100).
The compounds are a random part of those screened.
A dash means the value is not listed here; it may have been measured.

| # | structure | A | B | C | D |
|---|---|---|---|---|---|
| 1 | `Cc1ccnc(N2CCC(=O)N(Cc3ccc(F)cc3)C(C(C)C)C2)n1` (centres undefined) | 0.309 | 7.963 | 26.03 | -6.988 |
| 2 | `CSCCC(=O)N1CCC(c2nccn2Cc2cscn2)CC1` | -2.249 | -0.6006 | 4 | -2.971 |
| 3 | `Cc1nnc2n1CCN(C(=O)c1ccc(Cn3cccc3)cc1)C2` | -2.589 | 0.9375 | 51.72 | -1.387 |
| 4 | `COc1ccc(CC(=O)N2CC[C@@H]3NC(=O)CC[C@@H]32)cc1` | 3.376 | 2.645 | 8.772 | -0.2114 |
| 5 | `OC1CCN(c2ccnc(NCCN3CCc4ccccc4C3)n2)C1` (centres undefined) | -11.58 | 4.836 | 20.48 | 3.399 |
| 6 | `CC(C)Cc1ncc2c(n1)CN(c1cc(N3CCCC3)nc(N)n1)C2` | -1.877 | -1.462 | 11.43 | -3.804 |
| 7 | `CCOc1cc(CNc2nnn(C)n2)ccc1OCc1ccc(Cl)cc1` | 16.27 | 0.572 | -15.07 | 0 |
| 8 | `CC(C)N1C[C@@H](F)[C@@H](OCc2nc3ncccc3[nH]2)C1` | -23.69 | 2.9 | 14.86 | -0.9863 |
| 9 | `CC(C)C(=O)N1CCCc2c(cnn2-c2ccccc2)C1` | -7.56 | 0.9461 | -2.857 | -2.607 |
| 10 | `CCC[C@@H]1CN(Cc2ccc(C(F)(F)F)nc2)C[C@H]1C(=O)O` | -19.17 | -0.1911 | 15.5 | 1.724 |
| 11 | `O=S1(=O)C[C@@H]2[C@H](C1)N(Cc1ncc[nH]1)CCN2C/C=C/c1ccccc1` | 5.071 | -8.77 | 7.547 | -0.3298 |
| 12 | `CC1(NC(=O)Cc2csc(-c3ccccc3Cl)n2)CCS(=O)(=O)C1` (centres undefined) | -7.783 | 3.255 | 19.75 | 2.185 |
| 13 | `O=C(CCC1CCCCC1)NS(=O)(=O)CC1CC1` | -1.653 | 0.2937 | 0 | 0.2981 |
| 14 | `CC1CCN(CCNC(=O)c2ccn(-c3ccccc3)n2)CC1` | -6.555 | 0.9633 | 12.17 | 0.09737 |
| 15 | `CCCn1ccnc1CN1C[C@@H](NC(C)=O)[C@H](c2ccc(OC)cc2)C1` | -3.321 | 5.87 | 14.52 | -2.571 |
| 16 | `Cc1nc(CN2CCCN(C(=O)C(C)OCC3CC3)CC2)cs1` (centres undefined) | -11.63 | 3.726 | 2.703 | 3.021 |
| 17 | `Cc1nn(C)c(N(C)C)c1CNC(C)COc1ccccc1F` (centres undefined) | -18.67 | 0.3596 | 5.769 | 4.641 |
| 18 | `CSCCCN1CCn2nc(CNC(C)=O)cc2C1` | -14.8 | -6.062 | 5.769 | -5.631 |
| 19 | `CSc1ccc(CN(CCO)Cc2nccn2C)cc1` | -16.31 | 1.487 | 14.29 | 3.964 |
| 20 | `COc1ccc(CC(=O)N2CC[C@@H]3CN(C)S(=O)(=O)[C@@H]3CC2)cc1` | 5.667 | 3.633 | 15.38 | - |
| 21 | `O=C(Nc1ccccc1)c1cccc(S(=O)(=O)NC[C@@H]2C[C@H](F)CN2)c1` | -1.973 | 0.7029 | 12 | -1.729 |
| 22 | `CCn1ncc2c1C(COC)N(C(=O)CCc1ccccc1)CC2` (centres undefined) | -50.17 | -0.1285 | -0.9091 | - |
| 23 | `Cc1ccccc1C(C)(C)CNC(=O)CCSc1nnnn1C` | -40.81 | 8.184 | 21.01 | 2.017 |
| 24 | `CCN(CC)CC(=O)N1CCN(CCc2ccncc2)CC1` | -9.405 | -0.2323 | 4.396 | -1.192 |
| 25 | `Cc1nc(NC(=O)N2CCCC(C(F)(F)F)C2)nn1C` (centres undefined) | -8.688 | 2.45 | 6.452 | -0.9226 |
| 26 | `CCN(c1ccc(C(=O)N2CCCCC2)cc1)S(=O)(=O)CC` | 13.18 | 3.314 | 8.989 | -1.614 |
| 27 | `CC(C)NC(=O)CN(C1CC1)C(C)C1CC1` (centres undefined) | -16.41 | 8.394 | 6.494 | 1.012 |
| 28 | `CCc1c(C(=O)N2CCN(CC(N)=O)CC2)cnn1C(C)(C)C` | -34.35 | -1.149 | 13.64 | 0.4873 |
| 29 | `Cc1cnc(N(C)CCCc2cnn(C)c2)nc1N(C)C` | -8.99 | -4.256 | 5.495 | -0.5825 |
| 30 | `COCC1CN(Cc2ccc(C)o2)Cc2nnn(CC3CC3)c21` (centres undefined) | -2.147 | -5.1 | 2.83 | -0.58 |
| 31 | `O=C(O)CCC(=O)Nc1nn(Cc2ccccc2Cl)cc1Cl` | -13.29 | 1.568 | 18.58 | -3.745 |
| 32 | `CCN1CCCC1CNC(=O)Cc1c(C)n[nH]c1-c1ccc(OC)cc1` (centres undefined) | 12.8 | -0.1934 | 18.68 | 0.9238 |
| 33 | `Cc1cnn(C2CCCN(C(=O)c3ccnc(-n4cncn4)c3)C2)c1` (centres undefined) | -16.16 | -0.2204 | 0 | -0.142 |
| 34 | `Cc1cnc(C(=O)N2CCN(C(=O)C(C)C)[C@@H]3CS(=O)(=O)C[C@@H]32)cn1` | -13.88 | 0.7064 | 14.52 | -0.6734 |
| 35 | `COCCn1c2c(ccc1=O)CCN(C(=O)Cc1cccs1)CC2` | -18.57 | 6.768 | 23.08 | - |
| 36 | `O=C(c1cncs1)N1CCOCC(Cc2ccccn2)C1` (centres undefined) | 19.12 | -0.3559 | 11.51 | -9.375 |
| 37 | `Cc1nn(C)c2cn(C(C)C(=O)NCc3ccncc3)nc12` (centres undefined) | -15.69 | 4.439 | 3.448 | 1.943 |
| 38 | `O=C(NCc1ccc2c(c1)OCO2)[C@@H]1C=CCN1c1ncccn1` | -8.879 | 4.969 | 0 | -4.28 |
| 39 | `CS(=O)(=O)Cc1cc(Cl)c2c(c1)OCCCO2` | -28.98 | 3.071 | 1.333 | -7.515 |
| 40 | `OC[C@@H]1CCCN1c1ccc(-c2nc(CCc3ccccc3)no2)cn1` | 34.76 | 3.603 | 0 | -2.673 |
| 41 | `Cn1nc(C#N)c2c1CN(C(=O)c1ccsc1)CCC2` | -12.9 | 4.598 | 14.04 | -1.549 |
| 42 | `c1cn2c(n1)CN(C1CCOCC1)CC(CN1CCCC1)C2` (centres undefined) | -15.69 | 2.163 | 11.5 | -2.948 |
| 43 | `CSc1ccc(C(O)CNS(=O)(=O)C2CC2)cc1` (centres undefined) | -5.025 | 6.01 | 5.217 | -6.611 |
| 44 | `O=C(NCCCn1cncn1)N1CCC(N2CCCCC2)CC1` | -7.95 | 0.203 | 14.29 | -12.24 |
| 45 | `CCC(NS(=O)(=O)c1ccc(C(=O)NC2CC2)cc1)c1ccnn1C` (centres undefined) | -26.98 | 2.527 | 14.47 | 0.2742 |

Some entries from above, unchanged:

| structure | A | B | C | D |
|---|---|---|---|---|
| `OC[C@@H]1CCCN1c1ccc(-c2nc(CCc3ccccc3)no2)cn1` | 34.76 | 3.603 | 0 | -2.673 |
| `CC(C)NC(=O)CN(C1CC1)C(C)C1CC1` (centres undefined) | -16.41 | 8.394 | 6.494 | 1.012 |
| `Cc1nn(C)c2cn(C(C)C(=O)NCc3ccncc3)nc12` (centres undefined) | -15.69 | 4.439 | 3.448 | 1.943 |
| `CCN1CCCC1CNC(=O)Cc1c(C)n[nH]c1-c1ccc(OC)cc1` (centres undefined) | 12.8 | -0.1934 | 18.68 | 0.9238 |
| `c1cn2c(n1)CN(C1CCOCC1)CC(CN1CCCC1)C2` (centres undefined) | -15.69 | 2.163 | 11.5 | -2.948 |

Source: ChEMBL document CHEMBL3988442, “University of Dundee, Small-Polar-MMV Screening Library” (2021).